The results in this text go back to PubChem BioAssay AID1347423 (Functional Genomics Laboratory (NCATS/FGL), 2020).

The campaign covered roughly 52,000 sequences. About 210 (0.4%) were called active.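 How the source made its calls: active means gene whose silencing raises cell survival under the drug, median off-target-corrected z-score across its silencing RNAs 2 or more; inactive means the rest.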 Some of the results follow.

This test is described as follows: Resistance to Poly (ADP-Ribose) Polymerase inhibitor: Gene Identification via Genome-wide siRNA Screen. Conditions: mouse BRCA2 R2336H ES cells, olaparib, CellTiter-Glo viability; hits give high values. A digest of the protocol:
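Genome-wide siRNA screen (3 siRNAs/gene, 20 nM) in mouse ES cells carrying hypomorphic BRCA2 R2336H; olaparib 500 nM added 48 h post-transfection, CellTiter-Glo viability 72 h later. Normalized to plate-median negative control; MAD z-scores, gene median, seed-adjusted.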
On the technique in general: ATP-based viability assays read luminescence as a measure of living cells.
Take GCUAGUUGGGAUACUCAAGTT against Mpp6: the z-score was inactive: -0.715.

Consider GGAGACGAGAGGAUCCUCUTT against Chga, for which the z-score was inactive: 0.626.

For GGUACCCACUAGAGGAUCATT against Madd, the z-score was inactive: -0.535.

Regarding GGCUAAUCACCAAUUUCUUTT against BC005682, the z-score was inactive: 0.32.

Turning to “GCCUUCUUCGACCGCUCAUTT against 2810405K07Rik”, the z-score is inactive: 0.219.

Take GCAUAUUCAGCAACAGGUATT against Trim24: the z-score is inactive: 0.882.

Take CGGUACGAGAUGCAAAAAATT against Prkca: the z-score is inactive: 1.62.

For GGCAAUAAUAAAUAGCACCTT against Homer1, the z-score was inactive: -0.254.

Take “GCCAUACGAUCUGCAUUUCTT against A930014K01Rik”: the z-score is inactive: -1.22.

For the sequence GGUUGAUAGUUGUGAAAAGTT against Mclc, the z-score is inactive: -1.04.

For the sequence GCAGCAUAAUUGCUUGCUATT against Pde8b, the z-score was inactive: -0.819.

Regarding “GGUGAAGAAGUGACACCUGTT against 2700055K07Rik”, the z-score is inactive: 0.292.

Consider “GCUACUCAGUCUUUACUAUTT against 1200003M09Rik”, for which the z-score was inactive: -3.33.

For GGAUCCUAGGAUAGAAAAUTT against Asgr2, the z-score was inactive: 0.781.

On to CCCUCAACUUUCAGAUCAGTT against Ard1, for which the z-score is inactive: 0.611.

As to CGACUUGAUUUCAAAACAUTT against Fbxl13, the z-score is inactive: 0.0977.

For GGCCGAGGUUUUGUUCUUUTT against Polr2g, the z-score was inactive: -3.59.

For the sequence GCCAUUUAUCCGGUACGACTT against Arp3b, the z-score was inactive: 0.09.

GGAGGAGACUGAAAUUCCATT against Prkcdbp: the z-score was inactive: 0.506.

Consider AAGCUGAGAACAGUCGAAGTT against Vasp, for which the z-score was inactive: -0.57.

As to CGUGGUACACUGAAGACUUTT against Mmp1a, the z-score was inactive: 0.139.

Consider “GGGAUCAAGUUAAAUAGACTT against 1810032O08Rik”, for which the z-score is inactive: 1.14.

On to CCUAUGAAACCCAUCAUUATT against Farp2, for which the z-score is inactive: 0.717.

Turning to GGGAGACAAGUUCAUCAAATT against Gtf2e1, the z-score was inactive: 0.697.

For GGAAUGUUUCUUUAUCACATT against Slc35e4, the z-score is inactive: 0.975.

Consider “CCUACUGGUUGAAAAUAUUTT against 2210012G02Rik”, for which the z-score was inactive: -0.238.

Regarding CGAGACAGUUUCCAUAGCGTT against Mint, the z-score is inactive: -0.198.

For the sequence GGUAUGUUUUUCUCACAAGTT against Ehd4, the z-score is inactive: -0.231.

As to GGACAACUCCCAUAGCCAUTT against Sin3b, the z-score was inactive: 0.325.

GUAAACCACUGAAAAACCATT against Siah1b: the z-score was inactive: 1.22.

In the case of GGCCAUCAGAGUCAACUGUTT against Immt, the z-score is inactive: 0.123.

For “CCAUAUGUAAAGUGAAACATT against A530013C23Rik”, the z-score is inactive: 0.36.

Consider GGUCACUGCUAAAGCCUGATT against Stoml3, for which the z-score is inactive: -1.43.

With GGAAAUGUACCUGUUUGUUTT against Dnase1l2, the z-score was inactive: -0.984.

For the sequence CGCGCAUCCAGGUUAUCUUTT against Slc7a10, the z-score is inactive: 1.97.

Turning to GGCUGUAUACCAAUAAAAATT against B4galt6, the z-score was inactive: 1.53.

In the case of GGAGACUGUGUUUACAGUATT against Olfr347, the z-score was inactive: -0.75.

On to GGGUCUAUGAGCUAAUUAUTT against Psmd5, for which the z-score was inactive: -0.391.

Consider GGAAGUGGGCAGCAUCAUUTT against Pcbp4, for which the z-score is inactive: -1.56.

For the sequence GGAAAACCAUGAAGCCAUGTT against Dnase1l3, the z-score was inactive: -1.12.

Regarding GGGUGGAGACUUGGAAAUGTT against Spag11, the z-score was inactive: -0.202.

On to GGAAGAAGUAGAGAUGCUATT against Myl6, for which the z-score is inactive: 0.46.

Take GGAAGUUGGAAAAACAUUGTT against 6.72E+21: the z-score is inactive: 0.408.

With GCUACACCAUUGUAAGAAGTT against Gypa, the z-score is inactive: -0.32.

Consider GGCUACUUCAUGCUGUAUATT against Bcs1l, for which the z-score was inactive: 0.345.

For GCGAGUUGGAAUUGAGAUCTT against Casp8, the z-score was inactive: 0.155.

Turning to “GGCUCAGAUACAUCUGUUATT against 1700024K14Rik”, the z-score was inactive: -1.93.

Consider GGAUGUCCCGAAGCUAAGGTT against Ggnbp1, for which the z-score was inactive: -0.104.

For “GGAAGUAGGAGAGGAAAGUTT against D930020B18Rik”, the z-score was inactive: 0.225.

For “GGCCUUCUUGCCAACUACATT against D030070L09Rik”, the z-score was inactive: 0.608.

Take GGAGAGUAACAAUUAUGAATT against Pcdha9: the z-score is inactive: 0.501.

For GGCAACAAAAAAAUCCCAATT against Cd160, the z-score is inactive: 0.861.

Take GCUAGUUUGACAGAGGCCUTT against Prelp: the z-score is inactive: -0.911.

As for “CGAGGUUCGGACCUGUAAATT against 2610036N15Rik”, the z-score was inactive: 0.782.

In the case of GCCAUUACCCGGUAUAUGATT against Sesn1, the z-score is inactive: 0.919.

Turning to GGUCUUCAGACCAGAAACATT against Hsd3b2, the z-score is inactive: -1.74.

Turning to GCUUCUAUGGCAGGAUAAATT against Cd28, the z-score was inactive: -0.943.

Take GGAGCUACCUAUCCUUUGUTT against Dbccr1: the z-score was inactive: -1.03.

Regarding “GCUCGAUAUUUUGAAGUCCTT against 1700051C09Rik”, the z-score is inactive: -0.724.

On to GCCUAUAAAACCUUUGCCUTT against Loxl2, for which the z-score was inactive: -1.4.

As for GCUUUCGGAUGAACUUCGGTT against DXImx47e, the z-score is inactive: 1.12.

For CCUUUUGAAUGAUAGGGUGTT against Tbcd, the z-score is inactive: -0.373.

For the sequence GGUCAAUGCUGUUUUUGUUTT against Mxi1, the z-score was inactive: 0.526.

Take GGAUGUUAAACUACAUUGATT against Ropn1: the z-score is inactive: -0.621.

As to CGCAUAGAGCCUGUCCUCATT against Spink3, the z-score was inactive: 1.19.

Consider GGUUCAAGUUCGCAUACAGTT against Rnf111, for which the z-score was inactive: -1.05.

For the sequence GCACGUUGAACAAUGAAGATT against Unc13a, the z-score was inactive: -0.144.

Take GGAAAAGAAGCCAAUUCCUTT against Smpx: the z-score is inactive: 0.0446.

On to CCAGGAUUGCUGUUCUGAATT against D8Wsu151e, for which the z-score is inactive: 1.18.

As for GCAUUACUAUGAGCGGGACTT against Pygb, the z-score is inactive: 0.77.

CCUUACUUGAUAAUCCAAATT against Dlgh1: the z-score is inactive: -0.239.

In the case of CGUAUAACUAACCUGUUGATT against V1ra7, the z-score was inactive: 0.875.

For the sequence GCAAGUGAUGAACCAGUUCTT against Zcwcc1, the z-score is inactive: -1.62.

On to GCCAAUCUGGUGAUACUUCTT against V1re13, for which the z-score was inactive: -2.11.

As to “CCACUUGAGUAUAAGCAAUTT against Zfp422-rs1”, the z-score is inactive: -0.313.

With GGAAAAGAAGAAGCAGAUUTT against Incenp, the z-score was inactive: -2.17.

For “CCUGGACUGAGAAUAUAGCTT against 2610008E11Rik”, the z-score is inactive: -0.722.

With GCAAAACGGCUUUUGAAUGTT against Zfp454, the z-score is inactive: 1.12.

GCUUUGUGAUGGAUUACUATT against Ccl4: the z-score is inactive: 1.44.

With GGCUUGUGGAAAUUUUGGGTT against Paics, the z-score was inactive: -1.57.

For the sequence GGUUGUAAUGAGAAAGUGATT against H2-Ke6, the z-score was inactive: -0.728.

As to GGGUUCAACACAGCCAAUGTT against BC026682, the z-score is inactive: -0.415.

“GCUGCUUAGAUACAUUUUUTT against 4632434I11Rik”: the z-score is inactive: 0.128.

In the case of “GCAACAUAUGUUCAAGAUCTT against 0610037D15Rik”, the z-score is inactive: 1.34.

Turning to CCGUAUAGGUAGAUCCAGATT against Stmn1, the z-score is inactive: 0.468.

For the sequence GCACCGUGUGACCAUGAACTT against Akt1, the z-score was inactive: 0.964.

With GGAUUCAGACCACAAUACCTT against Klk4, the z-score is inactive: 0.541.

Regarding GGAAAACAUAAGGCAGUCUTT against Arl6ip2, the z-score was inactive: -0.45.

Consider CCCUCAACCAUUGUUCGAGTT against Rasal1, for which the z-score is inactive: 0.517.

For GGUUGCACUUUUUCAUAGUTT against Bcl2l2, the z-score is active: 2.83.

For GGAAGAAGACACAAAAAAUTT against Dscr1l2, the z-score is inactive: 0.66.

GGUGUAUGGUCUCAACUUUTT against Enah: the z-score was inactive: 0.603.

On to GGCAAAAGUGGUUAUUGAATT against Itga6, for which the z-score is active: 3.02.

For the sequence GGAGGUGGAUGAAGUAUUUTT against Nudt8, the z-score was inactive: 1.97.

Consider CGAGGUCAAUUUUAGAGAGTT against Tceb1, for which the z-score is inactive: -0.816.

Take GGAAAUUGCCAGUAAGGUGTT against Sdh1: the z-score was inactive: -0.465.

On to GGACUGUGGAUGAGUCCGUTT against Dnmbp, for which the z-score was inactive: -2.13.

As to GGAUAAGAGCAUCUCUUCATT against Sdhd, the z-score is inactive: 0.514.

Turning to UCAGCGAGCUUUAACCUUUTT against Olfr1028, the z-score is inactive: 0.731.

For CCUCCGGUCUUAUCAUGCATT against Sec61a1, the z-score is inactive: -1.27.

Consider CCGCACCAGGGAAAAUGCUTT against Crym, for which the z-score was inactive: 1.29.

For GGACCAAUAAACCUAGAACTT against Dact1, the z-score was inactive: 1.65.

CGGUACUUCAUUGUAAUUUTT against Slc20a2: the z-score is inactive: -0.0929.

For the sequence “GGUCGUUAAAAAAGAUGUGTT against 0610039J04Rik”, the z-score was inactive: -1.15.

As for “GGAGCUGGAGAGAUGUUAGTT against D10Ertd641e”, the z-score was inactive: -2.89.
